# Results taken from PubChem BioAssay AID1224854 (National Center for Advancing Translational Sciences (NCATS), 2016).
# Only results without a clear call are listed here; the source files them as inconclusive. Calls follow the shape of the dose curve; as a rule, active = well fitted activation curve with a large enough effect; inconclusive = small, poorly fitted or top-dose-only effect; inactive = flat fitted curve, though single readings scatter.
# Test: Cell viability assay for measurement of the protective activity of small molecules against cell death caused by Zika virus infection in human astrocytoma cells
# Settings: SNB-19 Zika virus cytoprotection, ATP luminescence, 72 h
# Excerpt: National Center for Advancing Translational Sciences [NCATS] Johns Hopkins University School of Medicine Florida State University Assay Overview: Zika virus infection causes cell death in certain cell types including human neural progenitor cells (hNPCs), astrocytes, and astrocytoma cell line (SNB-19). This cell viability assay measures the ATP content (level) in human astrocytoma cells (SNB-19) using a luminescence readout that is proportional to viable cell numbers. Decrease in the luminescence signal after Zika virus infection indicates the cell death caused by Zika virus. Small molecule inhibitors […] the decreased luminescence signal after Zika virus infection, indicating the protective effect of that small molecule on the cell death caused by Zika virus infection. This observed protective effect of small molecules against Zika virus induced cell death may result from inhibition of virus replication or cellular response to the virus infection.
# Assay Protocol Summary: The medium for SNB-19 cells is composed of RPMI 1640 (ATCC, Cat.# 30-2001), 10% fetal bovine serum (FBS) (GE healthcare Life Sciences, Cat.# SH30071.03), and 1% Pen/Strep (Gibco, Cat.# 15140-122). […] The luminescence intensity of the assay plates was measured using a ViewLux plate reader (PerkinElmer). […] The percentage inhibitions of the decreased cell viability by small molecule inhibitors were then calculated.
smiles,measurement,value
CCOP(=O)(CC)Oc1ccc([N+](=O)[O-])cc1 (stereo unspecified),Potency,inconclusive: 3.08 µM
